According to publication PMC7996170, “Novel Method for Quantifying AhR-Ligand Binding Affinities Using Microscale Thermophoresis” (Biosensors, 2021):
No constants are given. Whether binding was seen depends on the method and setting. Some binding calls cover weakened binding; strength is not graded here.

Sequences of proteins named here, by UniProt entry; tags and fusion partners are left off. A change or cut given only in a name is not applied to a line headed by its entry. A line that says so, or that is headed by a name, gives the form on record, which may keep a tag or linker. Residues count along the entry.
murine aryl hydrocarbon nuclear translocator, residues 85 to 465 (mARNT 85-465, ∆274–297, C256S, ∆351–358) (P53762, form named): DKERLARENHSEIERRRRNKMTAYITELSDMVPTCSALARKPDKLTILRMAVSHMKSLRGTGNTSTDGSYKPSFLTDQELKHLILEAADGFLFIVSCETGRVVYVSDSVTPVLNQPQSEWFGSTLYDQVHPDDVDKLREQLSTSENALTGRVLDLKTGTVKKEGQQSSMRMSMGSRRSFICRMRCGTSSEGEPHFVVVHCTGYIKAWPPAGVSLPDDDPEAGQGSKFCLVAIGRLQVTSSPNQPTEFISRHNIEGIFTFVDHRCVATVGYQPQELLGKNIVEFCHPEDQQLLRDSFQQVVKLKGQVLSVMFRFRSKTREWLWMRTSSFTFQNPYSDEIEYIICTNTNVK
UniProt P35869, residues 23-475: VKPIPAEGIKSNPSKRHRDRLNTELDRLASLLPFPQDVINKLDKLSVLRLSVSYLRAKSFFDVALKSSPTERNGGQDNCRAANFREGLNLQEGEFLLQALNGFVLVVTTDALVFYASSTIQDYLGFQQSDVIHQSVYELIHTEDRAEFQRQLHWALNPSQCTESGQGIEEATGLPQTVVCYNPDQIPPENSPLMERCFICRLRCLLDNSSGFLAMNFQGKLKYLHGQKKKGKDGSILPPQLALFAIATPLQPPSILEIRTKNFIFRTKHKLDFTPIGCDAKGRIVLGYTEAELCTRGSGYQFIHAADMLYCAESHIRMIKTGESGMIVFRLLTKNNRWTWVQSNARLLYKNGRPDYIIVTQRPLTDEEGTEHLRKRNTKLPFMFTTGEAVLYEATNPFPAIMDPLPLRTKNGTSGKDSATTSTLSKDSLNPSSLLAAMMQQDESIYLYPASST

Target: murine aryl hydrocarbon nuclear translocator, residues 85 to 465 (mARNT 85-465, ∆274–297, C256S, ∆351–358) (mouse) (UniProt P53762)
Test: co-purification (IMAC, heparin, SEC); both proteins co-expressed in E. coli BL21(DE3); HisTALON column, His6-tags removed with HRV 3C, HiTrap Heparin HP, then Superdex 200 10/300 GL in 20 mM HEPES pH 8.0, 200 mM NaCl, 5% glycerol, 5 mM DTT; fractions analysed by SDS-PAGE

Q: For “human aryl hydrocarbon receptor, bHLH-PAS A-PAS B fragment (hAhR 23-475) (from UniProt P35869 23-475) (domain or fragment)”, which binding is on record?
A: Its binding is “binds”.
